Measured values published in PMC2679207, “GLS-1, a Novel P Granule Component, Modulates a Network of Conserved RNA Regulators to Influence Germ Cell Fate Decisions” (PLoS Genetics, 2009).
These are yes or no findings as the source states them, for the method shown. For some assays here: In cells and extracts the contact can be indirect. Some results given as binding are weak or reduced against the parent protein; the word gives no strength. For some assays here: Tags and fused reporters may be left off the sequences shown.

How the values were obtained:
[1] = biological target: T1, MBP::GLD-3L with C-terminal His tag, from insect cells (C. elegans) (UniProt Q95ZK7); assay: co-IP; proteins co-expressed in insect cells; MBP::GLD-3L (wt or ax562) precipitated by an anti-GLD-3 N-terminal antibody; result does not depend on the temperature at which cells were grown
T1 sequence: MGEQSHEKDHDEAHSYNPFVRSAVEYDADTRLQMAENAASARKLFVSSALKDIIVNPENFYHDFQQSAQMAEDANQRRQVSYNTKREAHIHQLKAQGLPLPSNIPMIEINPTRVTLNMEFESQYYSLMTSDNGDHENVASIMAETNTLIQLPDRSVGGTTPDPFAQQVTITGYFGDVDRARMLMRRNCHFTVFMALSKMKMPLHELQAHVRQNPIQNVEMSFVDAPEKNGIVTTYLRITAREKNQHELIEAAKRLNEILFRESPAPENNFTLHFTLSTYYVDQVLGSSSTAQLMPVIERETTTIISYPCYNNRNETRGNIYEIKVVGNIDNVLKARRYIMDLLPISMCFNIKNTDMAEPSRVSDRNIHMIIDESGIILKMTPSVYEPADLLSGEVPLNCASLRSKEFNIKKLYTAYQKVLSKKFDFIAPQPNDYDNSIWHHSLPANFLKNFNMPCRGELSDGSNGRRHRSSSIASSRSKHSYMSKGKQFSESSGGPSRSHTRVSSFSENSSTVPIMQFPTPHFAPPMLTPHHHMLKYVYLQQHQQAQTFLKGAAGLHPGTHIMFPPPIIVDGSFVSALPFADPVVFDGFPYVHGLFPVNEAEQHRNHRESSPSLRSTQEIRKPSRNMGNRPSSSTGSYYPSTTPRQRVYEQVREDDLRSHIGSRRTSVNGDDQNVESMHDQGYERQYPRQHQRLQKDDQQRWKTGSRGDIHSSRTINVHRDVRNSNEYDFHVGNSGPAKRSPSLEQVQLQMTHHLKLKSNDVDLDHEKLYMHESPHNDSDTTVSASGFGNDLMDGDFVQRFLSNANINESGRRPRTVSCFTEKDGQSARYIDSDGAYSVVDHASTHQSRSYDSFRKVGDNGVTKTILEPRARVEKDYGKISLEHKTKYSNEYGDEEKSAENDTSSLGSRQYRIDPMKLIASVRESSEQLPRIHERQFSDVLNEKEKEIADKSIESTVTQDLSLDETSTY

[2] = biological target: T2, GLD-3L with C-terminal His tag, MBP cleaved off (C. elegans) (UniProt Q95ZK7); assay: pull-down; competition assay; MBP-FBF-1 immobilized on amylose beads, loaded with GLD-3L, then challenged with increasing amounts of free GLS-1; washed; GLD-3L on beads quantified from Western blot bands; both purified
T2 sequence: T1 sequence

[3] = biological target: T1, MBP::GLD-3L with C-terminal His tag, from insect cells (C. elegans); assay: pull-down; GLS-1 or GFP co-expressed with MBP-GLD-3L in insect cells by baculovirus co-infection; captured on amylose resin; immunoblotting; extracts RNAse A or mock treated
[4] = biological target: T3, GLS-1 (endogenous, worm extract) (C. elegans (endogenous in wild-type worms)) (UniProt Q8I4M5); assay: co-IP; wild-type whole worm extracts; anti-GLS-1 or anti-GLD-3L immune sera coupled to agarose beads, pre-immune serum as control; with or without RNase A; detected with the reciprocal antibodies
T3 sequence: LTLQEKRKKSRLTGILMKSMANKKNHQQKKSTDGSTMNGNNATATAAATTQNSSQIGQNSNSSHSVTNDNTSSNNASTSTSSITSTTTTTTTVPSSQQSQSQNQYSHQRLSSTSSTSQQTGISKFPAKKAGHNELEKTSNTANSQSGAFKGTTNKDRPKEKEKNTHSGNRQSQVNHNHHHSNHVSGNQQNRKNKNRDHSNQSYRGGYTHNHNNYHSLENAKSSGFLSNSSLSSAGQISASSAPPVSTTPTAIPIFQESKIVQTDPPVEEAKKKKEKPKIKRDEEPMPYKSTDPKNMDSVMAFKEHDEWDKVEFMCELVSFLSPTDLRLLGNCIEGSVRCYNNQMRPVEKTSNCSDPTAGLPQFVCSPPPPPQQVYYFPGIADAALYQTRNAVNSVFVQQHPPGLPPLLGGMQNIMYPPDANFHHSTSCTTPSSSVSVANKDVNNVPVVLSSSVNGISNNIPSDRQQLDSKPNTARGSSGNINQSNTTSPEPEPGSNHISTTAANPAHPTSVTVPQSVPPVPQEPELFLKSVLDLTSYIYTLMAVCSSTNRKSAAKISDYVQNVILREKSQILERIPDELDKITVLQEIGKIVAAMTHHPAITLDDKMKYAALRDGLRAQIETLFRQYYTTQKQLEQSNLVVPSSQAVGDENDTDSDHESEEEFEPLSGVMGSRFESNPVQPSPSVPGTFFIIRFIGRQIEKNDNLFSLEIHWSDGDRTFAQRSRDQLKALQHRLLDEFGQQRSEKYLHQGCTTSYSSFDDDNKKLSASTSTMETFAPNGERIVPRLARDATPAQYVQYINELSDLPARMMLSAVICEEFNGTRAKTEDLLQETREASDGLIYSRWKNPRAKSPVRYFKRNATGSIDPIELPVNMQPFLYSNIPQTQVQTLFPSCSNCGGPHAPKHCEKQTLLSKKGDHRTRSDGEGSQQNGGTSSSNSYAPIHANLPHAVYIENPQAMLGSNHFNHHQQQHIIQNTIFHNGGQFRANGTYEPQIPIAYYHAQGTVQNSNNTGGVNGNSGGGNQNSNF

[5] = biological target: T4, GLD-3 (endogenous, worm extract) (C. elegans (endogenous in wild-type worms)) (UniProt Q95ZK7); assay: as above
T4 sequence: T1 sequence

B1: GLS-1(FL) with C-terminal His tag, from insect cells (protein, UniProt Q8I4M5 26-1052)
chain: T3 sequence
binding [1]: binds | binding [2]: binds | binding [3]: binds

B2: GLD-3 (endogenous, worm extract) (protein, UniProt Q95ZK7-1 1-969)
chain: T1 sequence
binding [4]: binds

B3: GLS-1 (endogenous, worm extract) (protein, UniProt Q8I4M5 26-1052)
chain: T3 sequence
binding [5]: binds
